Measured values from PubChem BioAssay (EPA / NIEHS).
Several values for one entry are separate records, joined by “and”; a condition that tells them apart may be missing. Equal values may be shown once. Inconclusive means that the source gave no clear call. Such entries were picked first, then a sample of the others. For some of these results: Where the call is inconclusive, the potency comes from a doubtful curve fit. A structure can be active in one record and inactive in another. Activity calls are given as the source filed them. The calls were made as follows: active = hit-call score of the fitted dose curve at least 0.9, where 1 is the maximum; inconclusive = response in the unintended direction; inactive = score below 0.9.

Protein sequences, listed by entry. Tags and fused reporters are not part of them. Lines headed by an entry give the natural chain unless they say otherwise; changes in a name come on top.
UniProt P10827: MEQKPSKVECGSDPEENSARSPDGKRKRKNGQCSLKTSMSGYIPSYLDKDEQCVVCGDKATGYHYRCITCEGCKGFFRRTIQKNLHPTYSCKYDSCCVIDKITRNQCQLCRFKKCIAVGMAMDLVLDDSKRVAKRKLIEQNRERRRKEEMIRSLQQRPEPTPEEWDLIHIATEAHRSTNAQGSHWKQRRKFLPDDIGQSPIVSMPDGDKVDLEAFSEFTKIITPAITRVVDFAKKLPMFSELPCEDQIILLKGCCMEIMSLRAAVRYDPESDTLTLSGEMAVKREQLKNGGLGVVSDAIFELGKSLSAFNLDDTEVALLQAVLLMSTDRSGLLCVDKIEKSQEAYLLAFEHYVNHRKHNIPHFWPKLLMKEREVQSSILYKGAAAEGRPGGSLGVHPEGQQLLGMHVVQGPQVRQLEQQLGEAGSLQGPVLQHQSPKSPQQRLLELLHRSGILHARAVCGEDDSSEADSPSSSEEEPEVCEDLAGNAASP
UniProt Q9Y233: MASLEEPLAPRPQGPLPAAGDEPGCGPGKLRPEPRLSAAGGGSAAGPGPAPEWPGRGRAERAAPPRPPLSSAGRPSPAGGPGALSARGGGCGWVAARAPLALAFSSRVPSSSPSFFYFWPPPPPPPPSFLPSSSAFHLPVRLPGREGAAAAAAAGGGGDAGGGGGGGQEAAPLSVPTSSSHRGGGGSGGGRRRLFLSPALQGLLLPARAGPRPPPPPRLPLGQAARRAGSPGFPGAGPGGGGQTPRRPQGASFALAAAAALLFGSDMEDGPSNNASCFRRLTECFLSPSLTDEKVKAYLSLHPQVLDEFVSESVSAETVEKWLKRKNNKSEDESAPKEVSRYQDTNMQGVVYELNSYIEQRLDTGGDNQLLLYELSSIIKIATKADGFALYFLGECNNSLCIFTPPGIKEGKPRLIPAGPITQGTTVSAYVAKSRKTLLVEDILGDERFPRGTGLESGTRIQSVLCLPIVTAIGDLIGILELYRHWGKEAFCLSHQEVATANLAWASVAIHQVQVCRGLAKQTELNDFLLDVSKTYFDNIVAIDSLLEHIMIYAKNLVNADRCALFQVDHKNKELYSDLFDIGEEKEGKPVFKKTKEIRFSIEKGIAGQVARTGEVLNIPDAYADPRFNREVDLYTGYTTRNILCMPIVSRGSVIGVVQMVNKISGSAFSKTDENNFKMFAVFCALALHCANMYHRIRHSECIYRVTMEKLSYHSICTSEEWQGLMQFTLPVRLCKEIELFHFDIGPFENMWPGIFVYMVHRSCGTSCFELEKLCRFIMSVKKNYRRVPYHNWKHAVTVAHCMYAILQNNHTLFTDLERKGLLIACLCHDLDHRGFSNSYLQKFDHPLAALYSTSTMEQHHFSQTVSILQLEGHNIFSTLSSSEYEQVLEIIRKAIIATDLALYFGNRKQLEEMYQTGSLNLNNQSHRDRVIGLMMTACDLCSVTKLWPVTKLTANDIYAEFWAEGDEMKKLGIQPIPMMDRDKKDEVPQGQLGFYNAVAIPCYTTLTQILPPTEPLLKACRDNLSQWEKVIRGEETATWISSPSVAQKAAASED
UniProt P08684, whole entry, looked up: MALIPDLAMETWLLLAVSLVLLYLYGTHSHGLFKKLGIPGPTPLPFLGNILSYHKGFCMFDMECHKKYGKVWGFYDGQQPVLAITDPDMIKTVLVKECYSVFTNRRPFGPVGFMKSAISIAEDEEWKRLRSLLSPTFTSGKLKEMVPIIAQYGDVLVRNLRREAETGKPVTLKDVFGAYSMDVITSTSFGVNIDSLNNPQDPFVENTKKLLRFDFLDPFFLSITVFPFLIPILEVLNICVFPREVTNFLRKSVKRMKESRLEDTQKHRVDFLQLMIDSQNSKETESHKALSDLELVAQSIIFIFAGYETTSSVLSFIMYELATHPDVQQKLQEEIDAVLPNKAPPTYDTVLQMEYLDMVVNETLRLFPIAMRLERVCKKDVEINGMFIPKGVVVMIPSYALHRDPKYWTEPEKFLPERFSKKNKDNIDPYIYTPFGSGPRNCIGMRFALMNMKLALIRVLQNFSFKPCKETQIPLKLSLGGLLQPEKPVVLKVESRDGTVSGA
UniProt P04386, whole entry, looked up: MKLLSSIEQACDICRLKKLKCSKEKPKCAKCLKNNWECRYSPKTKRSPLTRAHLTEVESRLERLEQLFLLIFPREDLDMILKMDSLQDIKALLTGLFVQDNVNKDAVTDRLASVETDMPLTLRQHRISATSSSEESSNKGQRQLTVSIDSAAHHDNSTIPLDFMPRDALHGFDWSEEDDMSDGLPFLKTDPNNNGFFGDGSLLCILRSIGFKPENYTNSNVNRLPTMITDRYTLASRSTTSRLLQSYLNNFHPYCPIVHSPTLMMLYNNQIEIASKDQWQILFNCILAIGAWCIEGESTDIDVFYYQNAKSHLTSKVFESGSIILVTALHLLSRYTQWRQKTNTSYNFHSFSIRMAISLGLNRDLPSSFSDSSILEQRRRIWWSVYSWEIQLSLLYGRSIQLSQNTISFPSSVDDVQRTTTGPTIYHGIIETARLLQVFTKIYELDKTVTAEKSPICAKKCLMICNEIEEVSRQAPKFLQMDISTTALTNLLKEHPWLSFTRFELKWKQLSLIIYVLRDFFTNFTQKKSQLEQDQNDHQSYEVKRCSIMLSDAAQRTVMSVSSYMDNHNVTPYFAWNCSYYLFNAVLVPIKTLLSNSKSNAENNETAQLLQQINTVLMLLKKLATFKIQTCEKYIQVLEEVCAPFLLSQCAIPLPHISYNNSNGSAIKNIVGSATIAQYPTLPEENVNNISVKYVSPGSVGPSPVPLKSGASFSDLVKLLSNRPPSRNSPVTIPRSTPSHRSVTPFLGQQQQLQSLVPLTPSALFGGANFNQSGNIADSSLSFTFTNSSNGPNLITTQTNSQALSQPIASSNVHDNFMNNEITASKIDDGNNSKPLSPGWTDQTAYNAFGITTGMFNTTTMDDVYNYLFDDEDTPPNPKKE
UniProt P10828: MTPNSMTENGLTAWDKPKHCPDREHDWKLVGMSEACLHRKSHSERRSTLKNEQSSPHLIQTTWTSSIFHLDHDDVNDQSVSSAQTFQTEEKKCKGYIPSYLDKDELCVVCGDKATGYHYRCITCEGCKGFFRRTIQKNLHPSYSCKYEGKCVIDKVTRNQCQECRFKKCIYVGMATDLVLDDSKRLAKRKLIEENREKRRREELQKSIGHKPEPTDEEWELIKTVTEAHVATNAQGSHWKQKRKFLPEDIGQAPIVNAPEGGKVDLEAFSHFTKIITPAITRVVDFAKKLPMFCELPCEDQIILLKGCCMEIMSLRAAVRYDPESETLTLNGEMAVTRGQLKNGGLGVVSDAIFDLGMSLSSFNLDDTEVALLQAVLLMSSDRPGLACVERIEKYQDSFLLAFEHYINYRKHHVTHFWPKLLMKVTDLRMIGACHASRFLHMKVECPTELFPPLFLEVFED
UniProt P10276, whole entry, looked up: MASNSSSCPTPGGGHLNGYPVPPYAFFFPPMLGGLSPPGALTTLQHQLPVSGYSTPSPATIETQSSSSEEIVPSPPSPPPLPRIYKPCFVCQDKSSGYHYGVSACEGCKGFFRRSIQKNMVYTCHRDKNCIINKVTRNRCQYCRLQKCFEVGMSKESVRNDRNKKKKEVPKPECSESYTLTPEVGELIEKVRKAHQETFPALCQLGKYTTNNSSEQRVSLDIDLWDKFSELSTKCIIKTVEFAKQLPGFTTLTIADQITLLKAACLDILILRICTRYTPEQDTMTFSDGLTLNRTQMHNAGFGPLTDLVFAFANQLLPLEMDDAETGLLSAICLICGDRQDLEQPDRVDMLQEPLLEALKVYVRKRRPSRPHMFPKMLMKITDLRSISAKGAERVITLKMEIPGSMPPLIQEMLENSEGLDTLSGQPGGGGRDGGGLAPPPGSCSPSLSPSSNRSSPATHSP

Assays:
[1] = read-out: alkyl and aryl transferase (GSTA2), GSTA2 (gene 2939); test: CLD_GSTA2_6hr: CellzDirect (CLD) Gene Expression Assay for alkyl and aryl transferase (GSTA2) at 6 hours (AID 2283666)
Summary of the method: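 Primary human hepatocytes from two donor preparations were dosed daily with fresh compound at multiple concentrations, 0.2% DMSO vehicle. GSTA2 mRNA was measured at 6 hours by qNPA chemiluminescence; induction fitted relative to DMSO, with cytotoxicity flagged morphologically.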

[2] = molecular target: human Thyroid Receptor Alpha (TRa), THRA (gene 7067) (UniProt P10827); test: NVS_NR_hTRa_Antagonist: NovaScreen (NVS) Nuclear Receptor Binding Assay for human Thyroid Receptor Alpha Antagonism (TRa) (AID 2283362);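 also: activity is loss of signal relative to DMSO baseline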
Summary of the method: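 Cell-free binding assay on extracted receptor protein, read 1 h after chemical dosing by AlphaLISA chemiluminescence; loss of signal relative to DMSO baseline marks antagonism. Primary screen ran in duplicate at 25 uM, with concentration series for actives.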

[3] = Tanguay_ZF_120hpf_SWIM_legacy: (Legacy) Oregon State University Tanguay Lab 120 Hour Post-fertilization zebrafish Assay for Swim Bladder Malformation (AID 2283654);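 also: swim bladder malformation in each larva scored yes or no under brightfield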
Summary of the method: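 Embryos lacking chorions were exposed individually and statically to test chemical from 6 to 120 hpf at 28C, with 0.64% DMSO as vehicle. At 120 hpf, swim bladder malformation was recorded as present or absent by brightfield microscopy.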

[4] = CCTE_Shafer_MEA_dev_active_electrodes_number: CCTE's Neural Network Formation Assay for Number of Active Electrodes, Shafer Lab (AID 2284040);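 as to AC50: potency for loss of active electrodes versus DMSO so lower counts are hits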
Summary of the method: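 Primary rat cortical neurons on 16-electrode MEA wells, exposed from day 0 through day 12 with compound renewed at DIV 5 and 9 feeds. Active electrodes (mean firing ≥5 spikes/min) counted at DIV 5, 7, 9, 12; trapezoidal AUC across days, loss-of-signal versus DMSO.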

[5] = CCTE_Mundy_HCI_hNP1_CellTiter: CCTE's Cell Titer-Glo 2 Assay in human neuroprogenitor cells for Viability, Mundy Lab (AID 2284241);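 as to AC50: a hit is a drop in ATP luminescence versus DMSO meaning reduced viability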
Summary of the method: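 Human neural progenitor cells (hNP1, WA09-derived) were plated on poly-L-ornithine/laminin and grown 40 to 44 hours at 37 °C, 5% CO2 before chemical addition. Twenty-four hours later, ATP was measured by CellTiter-Glo luminescence; loss of signal versus DMSO indicates reduced viability.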

[6] = molecular target: human Phosphodiesterase 10 (PDE10), PDE10A (gene 10846) (UniProt Q9Y233); test: NVS_ENZ_hPDE10: NovaScreen (NVS) Enzymatic Assay for human Phosphodiesterase 10 (PDE10) (AID 2283195)
Summary of the method: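 PDE10A, cell-free; 1 h incubation; fluorescence intensity + electrophoretic mobility shift separating substrate/product; DMSO = baseline; 25 uM duplicate primary, CRC up to 50 uM.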

[7] = molecular target: Beta-2 adrenergic receptor (Homo sapiens) (UniProt P07550); test: NVS_GPCR_hAdrb2: NovaScreen (NVS) G Protein-Coupled Receptor Assay for human Adrenergic, Beta 2 Receptor (Adrb2) (AID 2283261)
Summary of the method: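 Filter-based radioligand binding using receptor prepared from CHO cells, 1 h incubation, scintillation counting. Primary screen in duplicate at 25 uM, actives retested in concentration series; loss of binding relative to DMSO.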

[8] = read-out: Cytochrome P450 3A4 (Homo sapiens) (UniProt P08684); test: CLD_CYP3A4_24hr: CellzDirect (CLD) Gene Expression Assay for xenobiotic metabolism (CYP3A4) at 24 hours (AID 2283689)
Summary of the method: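 Primary human hepatocytes from two donors dosed daily with fresh compound for two days, 0.2% DMSO vehicle. CYP3A4 mRNA at 24 hr by qNPA chemiluminescence; gain-of-signal fit versus DMSO, cytotoxicity flagged by morphology.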

[9] = system: turtle Androgen Receptor (AR), gene 101947425; test: ATG_trAR_XSP1: Attagene TRANS-FACTORIAL Multi-Species (XSP1) HepG2 Assay for turtle Androgen Receptor (AR) (AID 2283786)
Summary of the method: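 HepG2 cells transiently transfected with a turtle AR–GAL4 chimera and GAL4-UAS reporter, co-treated with 3 nM 6-alpha-fluorotestosterone for partial stimulation. Reporter mRNA is quantified at 24 h by RT-PCR and capillary electrophoresis, gain-of-signal versus DMSO.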

[10] = molecular target: GAL4 Transcription Factor (Internal Marker), GAL4 (gene 855828) (UniProt P04386); test: ATG_GAL4_XSP1: Attagene TRANS-FACTORIAL Multi-Species (XSP1) HepG2 Assay for GAL4 Transcription Factor (Internal Marker) (AID 2283789)
Summary of the method: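 HepG2 cells transiently transfected with multiplexed GAL4-UAS reporter units were exposed for 24 h with 3 nM 6-alpha-fluorotestosterone present. Reporter mRNA was quantified by RT-PCR, FAM labelling, HpaI digestion and capillary electrophoresis; background-control readout, gain-of-signal versus DMSO.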

[11] = molecular target: human Thyroid hormone Receptor alpha (TRa), THRA (gene 7067) (UniProt P10827); test: ATG_hTRa_XSP1: Attagene TRANS-FACTORIAL Multi-Species (XSP1) HepG2 Assay for human Thyroid hormone Receptor alpha (TRa) (AID 2283805)
Summary of the method: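 HepG2 cells transiently transfected with GAL4-UAS reporter units expressing chimeric NR-Gal4 proteins, dosed 24 hours with 3 nM 6-alpha-fluorotestosterone present. Reporter mRNA measured by RT-PCR and capillary electrophoresis; gain of signal fitted versus DMSO.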

[12] = system: zebrafish Peroxisome Proliferator-activated Receptor gamma (PPARg), gene 557037; test: ATG_zfPPARg_XSP2: Attagene TRANS-FACTORIAL Multi-Species (XSP2) HepG2 Assay for zebrafish Peroxisome Proliferator-activated Receptor gamma (PPARg) (AID 2283833);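 also: actives increase reporter signal over DMSO so AC50 reflects activation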
Summary of the method: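 HepG2 cells transiently transfected with GAL4-UAS reporter units expressing a zebrafish PPARg–GAL4 chimera; compound exposure 24 h. Reporter mRNA quantified by RT-PCR with fluorescent labelling and capillary electrophoresis; gain of signal fitted relative to DMSO baseline.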

[13] = molecular target: human Thyroid hormone Receptor beta (TRb), THRB (gene 7068) (UniProt P10828); test: ATG_hTRb_XSP2: Attagene TRANS-FACTORIAL Multi-Species (XSP2) HepG2 Assay for human Thyroid hormone Receptor beta (TRb) (AID 2283840);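 also: actives raise reporter mRNA so potency reflects agonist-like gain of signal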
Summary of the method: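 HepG2 cells were transiently transfected with GAL4-UAS multiplexed reporter units expressing chimeric NR-Gal4 proteins, dosed 24 h; reporter mRNA was quantified by RT-PCR, fluorescent labeling, HpaI digestion and capillary electrophoresis, fitted for gain of signal versus DMSO.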

[14] = CCTE_Mundy_HCI_Cortical_NOG_NeuronCount: CCTE's Neurite Outgrowth Assay in rat cortical cells for Neuron Count, Mundy Lab (AID 2284236);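 also: neurons counted by imaging betaIII-tubulin and Hoechst stained cortical cells; cells exposed to compound for about 48 hours before fixation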
Summary of the method: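 Read-out: neuron number by high-content imaging of betaIII-tubulin (Alexa Fluor-488) and Hoechst-labelled rat primary cortical cells.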

[15] = read-out: glucuronosyltransferase (UGT1A1), UGT1A1 (gene 54658); test: CLD_UGT1A1_24hr: CellzDirect (CLD) Gene Expression Assay for glucuronosyltransferase (UGT1A1) at 24 hours (AID 2283696)
Summary of the method: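 Primary human hepatocytes from two donor preparations were dosed (0.2% DMSO vehicle) and harvested at 24 h; UGT1A1 mRNA induction was quantified by chemiluminescent qNPA, fitted as gain relative to DMSO.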

[16] = ACEA_AR_antagonist_AUC_viability: ACEA Biosciences xCELLigence Real-Time Cell Analysis on Androgen Receptor Antagonism for Viability (AID 2283776);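 also: 22Rv1 human prostate cancer cells growing on impedance electrode plates; area under impedance growth curve at 80 h after dosing as viability; hits lower the growth signal relative to DMSO meaning cytotoxicity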
Summary of the method: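 Real-time electrical impedance tracks 22Rv1 proliferation after continuous compound exposure (top 100 uM final, 1:4 steps, 8 concentrations). The 80 h area-under-curve serves as the cytotoxicity readout relative to DMSO.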

[17] = molecular target: Retinoic acid receptor alpha (Homo sapiens) (UniProt P10276); test: NVS_NR_hRAR_Antagonist: NovaScreen (NVS) Nuclear Receptor Binding Assay for human Retinoic Acid Alpha Receptor Antagonism (RAR) (AID 2283358)
Summary of the method: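 TR-FRET, cell-free, antagonist format; 2 h incubation after dosing; DMSO = baseline; signal loss fitted; 25 uM duplicate primary, then conc. series.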

**Q.** For `CCC(C)Nc1c([N+](=O)[O-])cc(C(C)(C)C)cc1[N+](=O)[O-]` (stereo not drawn), which AC50 [1] is on record?
**A.** Its AC50 is inconclusive: 20 µM.

**Q.** For `CCOC(=O)CC(SP(=S)(OC)OC)C(=O)OCC` (stereo not drawn), which AC50 [2] is on record?
**A.** The AC50 was inconclusive: 18.4 µM.

**Q.** And the AC50 [3]?
**A.** The AC50 was active: 28.8 µM.

**Q.** And the AC50 [4]?
**A.** Its AC50 is active: 17.1 µM and active: 6.38 µM.

**Q.** What about the AC50 [5] of the same compound?
**A.** Its AC50 is active: 72.8 µM.

**Q.** And the outcome [5]?
**A.** The outcome was “inactive”.

**Q.** For `Nc1c(Oc2ccccc2)cc(O)c2c1C(=O)c1ccccc1C2=O`, which AC50 [6] is on record?
**A.** Its AC50 is inconclusive: 0.0567 µM.

**Q.** Which outcome [6] does the source give for `COc1cccc(C=O)c1` here?
**A.** The outcome was “inactive”.

**Q.** For `OC(c1ccc(Cl)cc1)(c1cncnc1)c1ccccc1Cl` (stereo not drawn), which outcome [7] is on record?
**A.** Its outcome is “inactive”.

**Q.** And the AC50 [1]?
**A.** The AC50 was inconclusive: 1.9 µM.

**Q.** And the AC50 [8]?
**A.** The AC50 was active: 0.542 µM.

**Q.** What about the AC50 [9] of the same compound?
**A.** The AC50 was inconclusive: 76.2 µM.

**Q.** What about the AC50 [10] of the same compound?
**A.** The AC50 was inconclusive: 100 µM.

**Q.** What about the AC50 [11] of the same compound?
**A.** The AC50 was inconclusive: 100 µM.

**Q.** And the AC50 [12]?
**A.** Its AC50 is active: 45.8 µM.

**Q.** And the AC50 [13]?
**A.** The AC50 was inconclusive: 100 µM.

**Q.** With `CCNc1nc(Cl)nc(NC(C)C)n1` as the compound, how does the AC50 [8] read?
**A.** The AC50 was active: 20 µM.

**Q.** For `OC(Cc1ccccc1Cl)(Cn1[nH]cnc1=S)C1(Cl)CC1` (stereo not drawn), which outcome [14] is on record?
**A.** The outcome was “inactive”.

**Q.** Which results are given for `COP(=O)(OC)O/C(C)=C/C(=O)N(C)C`?
**A.** AC50 [15]: inconclusive: 20 µM; outcome [16]: inactive; outcome [4]: inactive; AC50 [14]: inconclusive: 0.0001 µM; AC50 [5]: inconclusive: 0.00168 µM

**Q.** For `CON=C(C(=O)OC)c1ccccc1CON=C(C)c1cccc(C(F)(F)F)c1`, which AC50 [7] is on record?
**A.** The AC50 was inconclusive: 25 µM.

**Q.** What about the AC50 [16] of the same compound?
**A.** Its AC50 is active: 14.5 µM.

**Q.** And the AC50 [14]?
**A.** Its AC50 is active: 1.78 µM.

**Q.** With `Clc1ccc(COC(Cn2ccnc2)c2ccc(Cl)cc2Cl)cc1` (stereo not drawn) as the compound, how does the AC50 [17] read?
**A.** The AC50 was active: 16.2 µM.

**Q.** And the outcome [2]?
**A.** The outcome was “inactive”.
